Positions count from the first letter of the chain named. Names may count otherwise. These are yes or no findings as the source states them, for the method shown. Binding seen in cells or lysates may run through a third protein. Some results given as binding are weak or reduced against the parent protein; the word gives no strength. Tags and fused reporters may be left off the sequences shown. One block for each binder: values may come before it.
Columns and labels:
[1] = molecular target: T1, HA-tagged TXNIP (human) (UniProt Q9H3M7); test: co-immunoprecipitation from 293T lysates, Western blot
T1 sequence: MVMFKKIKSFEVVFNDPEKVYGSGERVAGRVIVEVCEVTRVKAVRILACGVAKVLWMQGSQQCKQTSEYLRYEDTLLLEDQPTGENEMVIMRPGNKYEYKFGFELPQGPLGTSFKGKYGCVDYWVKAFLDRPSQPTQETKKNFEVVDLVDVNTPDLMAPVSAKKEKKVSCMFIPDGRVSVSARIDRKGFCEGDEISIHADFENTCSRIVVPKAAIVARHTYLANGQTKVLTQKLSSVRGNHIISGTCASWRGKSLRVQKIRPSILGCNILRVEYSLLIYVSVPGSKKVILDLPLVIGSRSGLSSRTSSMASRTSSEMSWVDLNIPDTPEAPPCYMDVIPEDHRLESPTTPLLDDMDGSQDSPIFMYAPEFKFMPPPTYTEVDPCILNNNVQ

[2] = molecular target: GST-fused TXNIP (human) (UniProt Q9H3M7); test: glutathione bead pull-down of GST-fused TXNIP from HEK 293T lysates, SDS-PAGE and Western blot
[3] = molecular target: T2, FLAG-tagged TXNIP (human) (UniProt Q9H3M7); test: GST pull-down / co-IP from 293T lysates, Western blot
T2 sequence: T1 sequence

[4] = molecular target: T3, human TRX (thioredoxin), wild-type, tag-free (human) (UniProt P10599); test: GST pull-down from transfected HEK 293T lysates, immunoblot
T3 sequence: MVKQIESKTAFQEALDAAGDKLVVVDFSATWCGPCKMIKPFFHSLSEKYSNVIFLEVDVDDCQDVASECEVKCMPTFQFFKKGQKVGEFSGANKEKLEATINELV

[5] = molecular target: T3, human TRX (thioredoxin), wild-type, tag-free (human); test: GST pull-down from transfected HEK 293T lysates (FIG. 6B)
[6] = molecular target: T4, TRX(C35A), tag-free (human) (UniProt P10599); test: co-expression in E. coli and Ni-NTA co-purification, SDS-PAGE
T4 sequence: T3 sequence with C35A

[7] = molecular target: T3, human TRX (thioredoxin), wild-type, tag-free (human); test: as above

- binding [1]: binds
B1: FLAG-tagged TXNIP (protein)
chain: T1 sequence

- binding [2]: binds
- binding [3]: binds
B2: GST-fused TXNIP (protein)
chain: T1 sequence

- binding [3]: binds
B3: GST-fused TXNIP with Cys63 substituted with serine (protein)
chain: T1 sequence with C63S

- binding [4]: binds
- binding [5]: binds
B4: full-length TXNIP (thioredoxin-interacting protein) (protein)
chain: T1 sequence

- binding [3]: binds
B5: GST-fused TXNIP with Cys247 substituted with serine (protein)
chain: T1 sequence with C247S

- binding [4]: binds
B6: T-TXNIP(C170S/C205S/C267S) (protein)
chain: MFKKIKSFEVVFNDPEKVYGSGERVAGRVIVEVCEVTRVKAVRILACGVAKVLWMQGSQQCKQTSEYLRYEDTLLLEDQPTGENEMVIMRPGNKYEYKFGFELPQGPLGTSFKGKYGCVDYWVKAFLDRPSQPTQETKKNFEVVDLVDVNTPDLMAPVSAKKEKKVSSMFIPDGRVSVSARIDRKGFCEGDEISIHADFENTSSRIVVPKAAIVARHTYLANGQTKVLTQKLSSVRGNHIISGTCASWRGKSLRVQKIRPSILGSNILRVEYSLLIYVSVPGSKKVILDLPLVIGSRSGLSSRTSSMASRTSSEM

- binding [6]: binds
- binding [7]: binds
B7: N-TXNIP (N-terminal domain of TXNIP, residues 3-156) (protein)
chain: MFKKIKSFEVVFNDPEKVYGSGERVAGRVIVEVCEVTRVKAVRILACGVAKVLWMQGSQQCKQTSEYLRYEDTLLLEDQPTGENEMVIMRPGNKYEYKFGFELPQGPLGTSFKGKYGCVDYWVKAFLDRPSQPTQETKKNFEVVDLVDVNTPDL
